From US4156011A, “Sulphur- and oxygen-containing diaryl compounds” (priority 1974, dated 1979)
For some assays here: The name of at least one read-out is uncertain. For some assays here: At least one structure is not confirmed: it was looked up by name or label, or the drawing left a doubt.

Columns and labels:
[1] = Hypo-lipidaemic and hypo-cholesterolaemic action in rats on hyper-lipid diet; format: in vivo, Wistar rats; details: 0.025 g/kg; comparable to the two reference products at 0.1 g/kg
From the text: A. a batch of rats receiving a normal diet (percentage inhibition=100%);
B. a batch of rats receiving a hyper-lipid diet (percentage inhibition=0%);
C. a batch of rats receiving the hyper-lipid diet B with a daily dose, of 0.1 g/kg, of a reference product having a lipidaemia-normalising action, namely Lipavlon [ethyl 2-(p-chlorophenoxy)-2-methyl-propionate];
D. a batch of rats receiving the hyper-lipid diet B with a daily dose, of 0.1 g/kg, of another product having a lipidaemia-normalising action, namely LL 1558 [1,10-bis-(2-hydroxyethyl-thio)-decane]; and
E. a batch of rats receiving the hyper-lipid diet B with a daily dose of 10 mg/kg and 25 mg/kg, where necessary, higher doses.
In Table III which follows have been shown the results relating to CRL 40,201 (the product of Example 17) and CRL 40,202 (the product of Example 18) in respect of the hypo-lipidaemic action and hypo-cholesterolaemic action.

[2] = Reduction of lipids and cholesterol in rats treated orally; format: in vivo
Experimental: Some of the other results of the pharmacological tests which were carried out on rats are summarised below.
Rats given a normal diet are treated orally at a daily dose of 50 mg/kg for 3 and 5 days. A reduction of about 20% in the concentration of cholesterol and lipids in the plasma is observed.

[3] = normal diet, oral 10, 20 and 50 mg/kg (the 3 doses), first 3 days

For `CC(C)(Oc1ccc(Sc2ccc(Cl)cc2)cc1)C(=O)O` [CRL 40,201, 4-(4-Chlorophenylthio)-phenoxyisobutyric acid], the “hypo-lipidaemic and hypo-cholesterolaemic activity (in words)” value [1] was “very active hypo-lipidaemic and hypo-cholesterolaemic agents”.
For `CC(C)(Oc1ccc([S+]([O-])c2ccc(Cl)cc2)cc1)C(=O)O` (centres unmarked) [CRL 40,202, 4-(4-Chlorophenylsulphinyl)-phenoxyisobutyric acid], the “hypo-lipidaemic and hypo-cholesterolaemic activity (in words)” value [1] was “very active hypo-lipidaemic and hypo-cholesterolaemic agents”.
For `CC(Oc1ccc(Sc2ccc(Cl)cc2)cc1)C(=O)OCCSCCCCCCCCCCSCCOC(=O)C(C)Oc1ccc(Sc2ccc(Cl)cc2)cc1` (racemic) [CRL 40,390, 3,14-Dithia-1,16-hexadecyl di-(±)-{2-[p-(p-chlorophenylthio)-phenoxy]-propionate}], the “reduction in the cholesterol” value ([2]; oral 50 and 100 mg/kg, 4 days) was 55% and the “reduction in the lipids” value ([2]; oral 50 and 100 mg/kg, 4 days) was 40%.
For `CC(COC(=O)C(C)(C)Oc1ccc(Sc2ccc(Cl)cc2)cc1)SCCCCCCCCCCSC(C)COC(=O)C(C)(C)Oc1ccc(Sc2ccc(Cl)cc2)cc1` (racemic) [CRL 40,387, (±)-2,15-Dimethyl-3,14-dithia-1,16-hexadecyl di-{2-[p-(p-chlorophenylthio)-phenoxy]-2-methylpropionate}], the “reduction in the cholesterol” value [2, 3] was “about 25%” and the “reduction in the lipids” value [2, 3] was “about 25%”.
For `O=C(COc1ccc(Sc2ccc(Cl)cc2)cc1)OCCSCCCCCCCCCCSCCOC(=O)COc1ccc(Sc2ccc(Cl)cc2)cc1` [CRL 40,388, 3,14-Dithia-1,16-hexadecyl di-[p-(p-chlorophenylthio)-phenoxy-acetate]], the “reduction in the cholesterol” value ([2]; oral 50 and 100 mg/kg, 4 days) was 18% and the “reduction in the lipids” value ([2]; oral 50 and 100 mg/kg, 4 days) was 33%.
